Data from patent US7371414B2, “Therapeutic and diagnostic methods dependent on CYP2A enzymes” (Nicogen, Inc., priority 1997, dated 2008).

Target: T1, CYP2A6 (Homo sapiens, UniProt P11509)
T1 sequence (P11509 1-494): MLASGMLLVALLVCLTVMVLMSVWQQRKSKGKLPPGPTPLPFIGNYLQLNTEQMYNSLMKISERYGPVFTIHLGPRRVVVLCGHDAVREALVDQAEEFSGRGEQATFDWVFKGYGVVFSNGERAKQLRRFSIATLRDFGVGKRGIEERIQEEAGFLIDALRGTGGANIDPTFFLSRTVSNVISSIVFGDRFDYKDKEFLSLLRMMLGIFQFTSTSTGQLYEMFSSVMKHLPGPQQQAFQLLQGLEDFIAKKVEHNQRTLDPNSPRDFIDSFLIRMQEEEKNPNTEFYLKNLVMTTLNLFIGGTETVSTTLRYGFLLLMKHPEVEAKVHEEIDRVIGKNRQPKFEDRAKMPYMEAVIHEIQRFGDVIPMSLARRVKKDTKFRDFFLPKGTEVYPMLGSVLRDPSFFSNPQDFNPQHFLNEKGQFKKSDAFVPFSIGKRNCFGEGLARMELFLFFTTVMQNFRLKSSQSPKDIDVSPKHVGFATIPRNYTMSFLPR
Experiment: Inhibition of nicotine metabolism to cotinine in test livers
Assay type: biochemical
Parameters: from tissue; host or cells: human smokers in vivo (hepatic CYP2A6)
Details: CYP2B6 inhibitor added to coumarin

effect of addition on the inhibition of nicotine metabolism to cotinine by coumarin: enhanced the inhibition
SMILES: Cc1ccccc1C(OCCN(C)C)c1ccccc1 (stereo not shown) [orphenadrine]
